# Experimental data reported in PubChem BioAssay (EPA / NIEHS).
# Sequences of proteins named here, by UniProt entry; tags and fusion partners are left off. A change or cut given only in a name is not applied to a line headed by its entry.
# UniProt Q07869: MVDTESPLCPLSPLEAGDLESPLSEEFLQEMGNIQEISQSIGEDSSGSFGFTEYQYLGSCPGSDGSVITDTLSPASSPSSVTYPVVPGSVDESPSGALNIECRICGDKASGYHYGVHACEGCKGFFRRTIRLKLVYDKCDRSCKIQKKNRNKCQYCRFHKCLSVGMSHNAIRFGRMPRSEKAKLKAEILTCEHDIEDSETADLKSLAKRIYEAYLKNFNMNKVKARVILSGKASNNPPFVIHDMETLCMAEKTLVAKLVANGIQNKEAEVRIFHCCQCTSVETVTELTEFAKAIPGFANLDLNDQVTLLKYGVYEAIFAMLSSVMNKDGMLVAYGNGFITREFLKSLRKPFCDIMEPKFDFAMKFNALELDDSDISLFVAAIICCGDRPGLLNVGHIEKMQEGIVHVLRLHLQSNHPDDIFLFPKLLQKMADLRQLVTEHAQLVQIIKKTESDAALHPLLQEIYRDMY
# UniProt P10275: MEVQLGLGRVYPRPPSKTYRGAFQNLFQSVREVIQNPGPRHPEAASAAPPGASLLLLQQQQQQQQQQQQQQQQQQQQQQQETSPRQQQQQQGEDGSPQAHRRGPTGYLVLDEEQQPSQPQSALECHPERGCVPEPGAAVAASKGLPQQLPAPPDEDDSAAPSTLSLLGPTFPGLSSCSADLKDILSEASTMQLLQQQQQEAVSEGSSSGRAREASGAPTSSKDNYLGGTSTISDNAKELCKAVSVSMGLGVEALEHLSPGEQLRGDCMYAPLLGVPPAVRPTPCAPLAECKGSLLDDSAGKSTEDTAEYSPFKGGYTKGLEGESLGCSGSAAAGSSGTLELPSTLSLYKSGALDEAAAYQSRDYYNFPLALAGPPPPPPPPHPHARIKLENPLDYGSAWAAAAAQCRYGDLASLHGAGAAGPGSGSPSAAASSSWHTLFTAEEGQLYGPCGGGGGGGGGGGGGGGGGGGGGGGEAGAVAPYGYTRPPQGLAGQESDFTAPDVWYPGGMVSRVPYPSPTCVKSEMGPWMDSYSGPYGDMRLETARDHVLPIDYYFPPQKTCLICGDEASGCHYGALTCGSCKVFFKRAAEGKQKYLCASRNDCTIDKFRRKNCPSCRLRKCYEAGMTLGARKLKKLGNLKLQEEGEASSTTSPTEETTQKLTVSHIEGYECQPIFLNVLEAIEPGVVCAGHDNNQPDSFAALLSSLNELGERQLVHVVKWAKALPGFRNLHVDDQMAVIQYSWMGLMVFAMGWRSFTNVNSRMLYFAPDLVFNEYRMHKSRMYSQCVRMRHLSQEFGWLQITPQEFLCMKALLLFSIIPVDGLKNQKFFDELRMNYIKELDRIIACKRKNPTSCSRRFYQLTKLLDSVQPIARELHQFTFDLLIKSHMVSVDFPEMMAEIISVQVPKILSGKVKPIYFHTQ
# UniProt P05979, whole entry, looked up: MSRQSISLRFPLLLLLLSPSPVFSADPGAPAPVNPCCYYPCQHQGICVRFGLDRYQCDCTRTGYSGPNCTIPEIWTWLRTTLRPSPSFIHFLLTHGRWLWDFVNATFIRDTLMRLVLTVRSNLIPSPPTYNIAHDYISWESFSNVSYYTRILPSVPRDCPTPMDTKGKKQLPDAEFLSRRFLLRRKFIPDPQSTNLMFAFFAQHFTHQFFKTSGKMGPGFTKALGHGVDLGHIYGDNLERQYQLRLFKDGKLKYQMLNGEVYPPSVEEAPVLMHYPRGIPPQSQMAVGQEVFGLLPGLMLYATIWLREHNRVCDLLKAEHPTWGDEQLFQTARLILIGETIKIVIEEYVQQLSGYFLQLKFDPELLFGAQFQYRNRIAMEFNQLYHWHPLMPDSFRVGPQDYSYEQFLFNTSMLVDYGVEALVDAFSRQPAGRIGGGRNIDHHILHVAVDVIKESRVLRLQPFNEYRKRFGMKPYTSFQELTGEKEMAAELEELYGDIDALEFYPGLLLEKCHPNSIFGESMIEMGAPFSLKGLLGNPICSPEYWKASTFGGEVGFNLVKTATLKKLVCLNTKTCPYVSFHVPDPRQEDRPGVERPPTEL
# UniProt Q92731, whole entry, looked up: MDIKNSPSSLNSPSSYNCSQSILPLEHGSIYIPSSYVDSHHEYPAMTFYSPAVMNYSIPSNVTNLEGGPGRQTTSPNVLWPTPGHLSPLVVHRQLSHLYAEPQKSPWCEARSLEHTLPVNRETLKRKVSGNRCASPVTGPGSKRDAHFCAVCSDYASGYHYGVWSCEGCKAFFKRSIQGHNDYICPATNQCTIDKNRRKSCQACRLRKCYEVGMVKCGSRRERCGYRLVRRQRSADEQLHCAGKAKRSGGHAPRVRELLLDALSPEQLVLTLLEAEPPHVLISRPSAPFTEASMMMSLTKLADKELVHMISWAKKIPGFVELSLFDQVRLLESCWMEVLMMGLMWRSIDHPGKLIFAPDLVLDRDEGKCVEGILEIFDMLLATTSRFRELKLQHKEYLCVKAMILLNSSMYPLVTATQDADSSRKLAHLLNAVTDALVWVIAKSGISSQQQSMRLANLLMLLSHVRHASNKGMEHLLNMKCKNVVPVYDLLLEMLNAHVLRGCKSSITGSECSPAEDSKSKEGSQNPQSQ
# UniProt P20813: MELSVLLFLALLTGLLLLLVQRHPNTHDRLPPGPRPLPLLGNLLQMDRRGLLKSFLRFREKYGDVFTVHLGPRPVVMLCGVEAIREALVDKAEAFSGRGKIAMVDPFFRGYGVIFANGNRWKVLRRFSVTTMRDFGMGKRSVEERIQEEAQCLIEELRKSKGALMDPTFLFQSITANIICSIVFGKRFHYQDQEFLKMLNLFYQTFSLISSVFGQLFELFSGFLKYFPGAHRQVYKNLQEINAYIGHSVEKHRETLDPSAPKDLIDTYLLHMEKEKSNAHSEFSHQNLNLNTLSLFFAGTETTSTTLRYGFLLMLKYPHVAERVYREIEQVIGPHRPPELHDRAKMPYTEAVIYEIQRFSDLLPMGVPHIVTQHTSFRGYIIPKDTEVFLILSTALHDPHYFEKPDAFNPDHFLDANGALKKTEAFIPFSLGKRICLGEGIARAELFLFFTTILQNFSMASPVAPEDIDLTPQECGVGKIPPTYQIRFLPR
# UniProt Q9UNQ0: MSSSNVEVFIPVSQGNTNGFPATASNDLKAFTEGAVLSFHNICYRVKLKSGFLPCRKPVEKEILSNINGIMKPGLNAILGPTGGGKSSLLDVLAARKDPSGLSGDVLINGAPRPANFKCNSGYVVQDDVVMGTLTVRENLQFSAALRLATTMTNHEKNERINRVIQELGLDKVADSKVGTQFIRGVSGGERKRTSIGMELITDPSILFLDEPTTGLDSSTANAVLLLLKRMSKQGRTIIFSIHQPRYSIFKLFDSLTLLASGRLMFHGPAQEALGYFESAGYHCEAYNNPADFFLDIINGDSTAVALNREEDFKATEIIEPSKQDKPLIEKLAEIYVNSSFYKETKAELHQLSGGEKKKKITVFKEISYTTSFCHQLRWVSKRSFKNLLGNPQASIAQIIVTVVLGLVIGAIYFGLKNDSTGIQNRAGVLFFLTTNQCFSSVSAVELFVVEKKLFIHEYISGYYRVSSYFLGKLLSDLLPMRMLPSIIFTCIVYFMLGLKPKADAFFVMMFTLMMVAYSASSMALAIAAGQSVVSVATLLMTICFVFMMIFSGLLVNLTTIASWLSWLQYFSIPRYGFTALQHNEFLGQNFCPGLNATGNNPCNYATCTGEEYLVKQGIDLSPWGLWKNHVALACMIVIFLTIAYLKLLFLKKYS
# UniProt P37231: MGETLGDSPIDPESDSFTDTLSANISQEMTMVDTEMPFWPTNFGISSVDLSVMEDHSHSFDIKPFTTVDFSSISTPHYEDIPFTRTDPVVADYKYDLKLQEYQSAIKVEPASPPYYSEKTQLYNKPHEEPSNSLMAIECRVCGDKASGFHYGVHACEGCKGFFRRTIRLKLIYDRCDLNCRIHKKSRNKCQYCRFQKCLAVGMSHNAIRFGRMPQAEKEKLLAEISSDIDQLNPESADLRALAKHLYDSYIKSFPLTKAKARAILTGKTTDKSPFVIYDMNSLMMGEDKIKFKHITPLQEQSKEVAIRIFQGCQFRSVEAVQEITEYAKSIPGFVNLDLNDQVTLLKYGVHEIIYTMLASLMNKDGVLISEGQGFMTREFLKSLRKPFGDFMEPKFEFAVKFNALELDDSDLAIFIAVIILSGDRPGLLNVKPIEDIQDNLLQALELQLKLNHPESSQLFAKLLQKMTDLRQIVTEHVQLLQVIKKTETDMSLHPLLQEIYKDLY
# “And” between values parts separate entries of the source, which are not always exact repeats. Equal entries are not always repeated. The inconclusive results got no clear call from the source; some entries with a clear call stand among them for comparison. For part of these data: Potencies of inconclusive entries are doubtful fits and often do not repeat. The source made the active and inactive calls. Rule for the calls: active = hit-call score of the fitted dose curve at least 0.9, where 1 is the maximum; inconclusive = response in the unintended direction; inactive = score below 0.9.
# Tests used:
# [1] = Tanguay_ZF_120hpf_BRAI_legacy: (Legacy) Oregon State University Tanguay Lab 120 Hour Post-fertilization zebrafish Assay for Brain Malformation (AID 2283641)
# In short: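 Tropical 5D wild-type zebrafish embryos were exposed statically in sealed, foil-covered plates at 28C until 120 hpf, with 0.64% (vol/vol) final DMSO. Brain malformation was scored present/absent by brightfield microscopy, relative to DMSO baseline.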
# [2] = Tanguay_ZF_120hpf_SOMI_legacy: (Legacy) Oregon State University Tanguay Lab 120 Hour Post-fertilization zebrafish Assay for Somite Malformation (AID 2283647)
# In short: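 Tropical 5D wild-type zebrafish embryos, dechorionated with pronase at 4 hpf, were placed singly at 6 hpf and statically exposed until 120 hpf at 28C in 0.64% DMSO. Somite malformation was scored present/absent by brightfield microscopy versus DMSO.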
# [3] = read-out: xenobiotic metabolism (CYP1A1), CYP1A1 (gene 1543); assay: CLD_CYP1A1_24hr: CellzDirect (CLD) Gene Expression Assay for xenobiotic metabolism (CYP1A1) at 24 hours (AID 2283673);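 note: CYP1A1 mRNA level by quantitative nuclease protection with chemiluminescence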
# In short: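 Transcript levels were read at 24 h by qNPA chemiluminescence in human liver primary cells. Cells got daily fresh dosing at multiple concentrations (vehicle 0.2% DMSO). Induction fitted upward against DMSO; phase-contrast cytotoxicity annotated.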
# [4] = CLD_ACTIN_48hr: CellzDirect (CLD) Gene Expression Assay for Baseline Control (Actin) at 48 hours (AID 2283702)
# In short: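 Background-control actin mRNA read by qNPA chemiluminescence at 48 h. Human hepatocyte cultures from two donors received fresh multi-concentration chemical doses daily for two days; 0.2% DMSO served as vehicle baseline.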
# [5] = CCTE_Shafer_MEA_acute_AB: CCTE's Alamar Blue Assay for Cytotoxicity in the Neural Acute Assay, Shafer Lab (AID 2284069);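 note: active compounds lower the viability signal compared with DMSO wells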
# In short: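 Metabolic activity in chemically exposed rat cortical neurons (MEA cultures, day 13/15 post-plating) measured via CellTiter Blue resazurin reduction, 544/590 nm fluorescence; fitted relative to DMSO, with signal loss indicating reduced viability.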
# [6] = CCTE_Shafer_MEA_acute_LDH: CCTE's Lactate Dehydrogenase Assay for Cytotoxicity in the Neural Acute Assay, Shafer Lab (AID 2284086);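 note: active means LDH release rises above DMSO vehicle level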
# In short: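 Cytotoxicity readout: spectrophotometric LDH activity in supernatant of rat primary cortical neurons, post-plating day 13 or 15, sampled after 40 min compound exposure; signal gain relative to DMSO baseline.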
# NCBI gene 100848466 = assay: NVS_NR_bPR: NovaScreen (NVS) Nuclear Receptor Binding Assay for bovine Progextron Receptor (PR) (AID 2283343);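 for AC50: actives lower bound radioligand signal below DMSO meaning displacement of the label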
# In short: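 Steps: bovine uterine membranes were dosed with chemical alongside radioligand, incubated 18 hours, then radiodetected by scintillation counting. Initial testing used 25 uM in duplicate; confirmed actives were rerun as concentration series.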
# [7] = target: human Peroxisome Proliferator-activated Receptor alpha (PPARa), PPARA (gene 5465) (UniProt Q07869); assay: NVS_NR_hPPARa: NovaScreen (NVS) Nuclear Receptor Binding Assay for human Peroxisome Proliferator-activated Receptor alpha (PPARa) (AID 2283359);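 note: activity means loss of TR-FRET signal versus DMSO baseline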
# In short: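 One-hour incubation, cell-free extracted protein, TR-FRET binding readout; signal loss vs DMSO scored. Screen: 25 uM duplicates, confirmatory dose series for actives.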
# [8] = read-out: xenobiotic metabolism (CYP1A1), CYP1A1 (gene 1543); assay: CLD_CYP1A1_48hr: CellzDirect (CLD) Gene Expression Assay for xenobiotic metabolism (CYP1A1) at 48 hours (AID 2283705)
# In short: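 CYP1A1 transcript measured by quantitative nuclease protection (chemiluminescent) 48 h after two daily treatments of human hepatocyte cultures, versus 0.2% DMSO. Morphology-based cytotoxicity flags accompany data; two donor preparations used.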
# AR (gene 367) = AR (gene 367) (UniProt P10275); assay: ACEA_AR_agonist_80hr: ACEA Biosciences xCELLigence Real-Time Cell Analysis on Androgen Receptor Agonism for Proliferation (AID 2283783);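 note: hits increase impedance growth signal above DMSO baseline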
# In short: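 Real-time cell-growth kinetics were recorded by electrode impedance in 22Rv1 cells exposed to test chemicals up to 100 uM final; the 80 h timepoint served as the readout, fitted upward relative to DMSO controls, in biological duplicate.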
# [9] = target: sheep Cyclooxygenase-1 (Cox1), PTGS1 (gene 443551) (UniProt P05979); assay: NVS_ENZ_oCOX1: NovaScreen (NVS) Enzymatic Assay for sheep Cyclooxygenase-1 (Cox1) (AID 2283239);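 note: actives reduce cyclooxygenase activity so potencies are for inhibitors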
# In short: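 Cell-free colorimetric assay of enzyme activity in a native extract of ovine seminal vesicles. Absorbance was read 0.66 hour after compound addition. Loss of signal relative to the DMSO negative control was scored, with actives from the 25 uM duplicate primary screen retested in concentration series.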
# [10] = Tanguay_ZF_120hpf_TR_legacy: (Legacy) Oregon State University Tanguay Lab 120 Hour Post-fertilization zebrafish Assay for Touch Response (AID 2283667)
# In short: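 Readout is presence or absence of touch response in 120 hpf zebrafish larvae, assessed by brightfield observation after continuous static exposure at 28C. Final vehicle was 0.64% (vol/vol) DMSO.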
# [11] = target: Estrogen receptor beta (Homo sapiens) (UniProt Q92731); assay: OT_ER_ERbERb_0480: Odyssey Thera (OT) 8-hour HEK293T Protein-Complementation Assay for Estrogen Receptor-beta/-beta Homodimer (AID 2283357);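 note: active means signal gain over DMSO baseline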
# In short: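 Fluorescence gain from complemented reporter fragments on ER-beta LBD homodimer in HEK293T was quantified against DMSO controls after 8 h treatment, fixation in 4% formaldehyde and Draq5 staining.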
# [12] = read-out: ABC Transporter (ABCB1), ABCB1 (gene 5243); assay: CLD_ABCB1_48hr: CellzDirect (CLD) Gene Expression Assay for ABC Transporter (ABCB1) at 48 hours (AID 2283695);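 for AC50: potency for induction meaning increase of mRNA over DMSO vehicle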
# In short: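 ABCB1 mRNA was measured by quantitative nuclease protection assay (chemiluminescence) 48 h after dosing. Human hepatocyte cultures from two separate donors received fresh dosing solutions daily for two days, with 0.2% DMSO as vehicle. Positive-direction fit against DMSO.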
# [13] = system: turtle Androgen Receptor (AR), gene 101947425; assay: ATG_trAR_XSP2: Attagene TRANS-FACTORIAL Multi-Species (XSP2) HepG2 Assay for turtle Androgen Receptor (AR) (AID 2283815);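 note: reporter mRNA from a Gal4 chimera of turtle AR measured by RT-PCR; potency for gain of reporter signal meaning activation above DMSO baseline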
# In short: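 Reporter transcripts were quantified via RT-PCR and capillary electrophoresis and fitted upward against DMSO. Transiently transfected human HepG2 cells carrying NR-Gal4 chimeras were exposed 24 h, with 3 nM 6-alpha-fluorotestosterone plus 1.5 nM norgestrel added.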
# [14] = system: chicken Androgen Receptor (AR), gene 422165; assay: ATG_chAR_XSP2: Attagene TRANS-FACTORIAL Multi-Species (XSP2) HepG2 Assay for chicken Androgen Receptor (AR) (AID 2283819);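 note: hits raise reporter mRNA above DMSO so potency is for activation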
# In short: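 Readout is reporter mRNA induction via RT-PCR/capillary electrophoresis after 24 h chemical exposure, positive direction relative to DMSO. Transiently transfected HepG2 express chimeric chicken AR–GAL4; AR stimulated by 3 nM 6-alpha-fluorotestosterone and 1.5 nM norgestrel.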
# [15] = ATG_M_19_XSP2: Attagene TRANS-FACTORIAL Multi-Species (XSP2) HepG2 Assay for M32 Transcription Factor (Internal Marker) (AID 2283822)
# In short: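 Internal background marker in a multi-species nuclear receptor TRANS panel: transfected HepG2 cells exposed 24 h, with 3 nM 6-alpha-fluorotestosterone and 1.5 nM norgestrel present. Readout is RT-PCR of reporter transcripts resolved by capillary electrophoresis, gain-of-signal versus DMSO.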
# [16] = read-out: Cytochrome P450 2B6 (Homo sapiens) (UniProt P20813); assay: CLD_CYP2B6_48hr: CellzDirect (CLD) Gene Expression Assay for xenobiotic metabolism (CYP2B6) at 48 hours (AID 2283699);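 note: actives raise transcript level above DMSO so potency reflects induction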
# In short: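 CYP2B6 transcript induction, read by quantitative nuclease protection (S1 digestion, chemiluminescent detection) 48 h after dosing, is fitted upward against 0.2% DMSO. Cultured human liver primary cells, two donor preparations, received fresh chemical daily over multiple concentrations.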
# [17] = read-out: Broad substrate specificity ATP-binding cassette transporter ABCG2 (Homo sapiens) (UniProt Q9UNQ0); assay: CLD_ABCG2_6hr: CellzDirect (CLD) Gene Expression Assay for ABC Transporter (ABCG2) at 6 hours (AID 2283660)
# In short: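 ABCG2 mRNA induction measured by qNPA chemiluminescence in human primary hepatocyte cultures, 6 h post-dose. Chemicals tested at several concentrations against a 0.2% DMSO vehicle; positive-direction fit relative to DMSO.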
# [18] = target: Peroxisome proliferator-activated receptor gamma (Homo sapiens) (UniProt P37231); assay: NVS_NR_hPPARg: NovaScreen (NVS) Nuclear Receptor Binding Assay for human Peroxisome Proliferator-activated Receptor gamma (PPARg) (AID 2283370)
# In short: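 Cell-free binding to extracted PPARg protein, read by fluorescence polarization 2 h after dosing; loss of signal relative to DMSO baseline marks displacement. Primary screen in duplicate at 25 uM, actives retested in concentration series.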
smiles,measurement,setting,value
ClC(Cl)c1ccccc1,AC50,[1],inconclusive: 81.5 µM
same,AC50,[2],inconclusive: 202 µM
CCC(C)Nc1c([N+](=O)[O-])cc(C(C)(C)C)cc1[N+](=O)[O-] (configuration not stated),AC50,[1],inconclusive: 4.07 µM
same,outcome,[3],inactive
same,AC50,[4],inconclusive: 20 µM
same,outcome,[5],inactive
same,AC50,[6],inconclusive: 20 µM
CCOC(=O)CC(SP(=S)(OC)OC)C(=O)OCC (configuration not stated),outcome,NCBI gene 100848466,inactive
same,AC50,[7],inconclusive: 25 µM
same,AC50,[2],active: 32 µM
same,AC50,[8],inconclusive: 20 µM
same,AC50,AR (gene 367),inconclusive: 0.0545 µM
COc1cccc(C=O)c1,AC50,[9],inconclusive: 0.231 µM
COCCOCCO,outcome,[10],inactive
same,outcome,[5],inactive
COC(=O)c1ccccc1S(=O)(=O)NC(=O)N(C)c1nc(C)nc(OC)n1,AC50,[12],inconclusive: 38 µM
same,AC50,[4],inconclusive: 0.037 µM
CCNc1nc(Cl)nc(NC(C)C)n1,AC50,NCBI gene 100848466,inconclusive: 25 µM
same,outcome,[10],inactive
same,AC50,[16],active: 3.97 µM
same,AC50,[4],inconclusive: 20 µM
same,AC50,[6],inconclusive: 20 µM
COP(=O)(OC)O/C(C)=C/C(=O)N(C)C,outcome,[16],inactive
same,AC50,[8],inconclusive: 20 µM
CN(C)CCN(C)C,outcome,[9],inactive
CON=C(C(=O)OC)c1ccccc1CON=C(C)c1cccc(C(F)(F)F)c1,AC50,NCBI gene 100848466,inconclusive: 25 µM
same,AC50,[1],active: 6.64 µM
same,outcome,[10],inactive
same,outcome,[3],inactive
same,outcome,[12],inactive
same,outcome,[4],inactive
Clc1ccc(COC(Cn2ccnc2)c2ccc(Cl)cc2Cl)cc1 (configuration not stated),AC50,[7],active: 39.8 µM
CCC(C)n1c(=O)[nH]c(C)c(Br)c1=O (configuration not stated),AC50,NCBI gene 100848466,inconclusive: 6.5 µM
same,AC50,[11],inconclusive: 50 µM
same,AC50,[17],inconclusive: 3.97 µM
same,outcome,[10],inactive
same,AC50,[12],inconclusive: 20 µM
CC1COC(Cn2cncn2)(c2ccc(Oc3ccc(Cl)cc3)cc2Cl)O1 (configuration not stated),AC50,NCBI gene 100848466,inconclusive: 0.0391 µM
same,outcome,[11],inactive
same,AC50,[1],inconclusive: 51.9 µM
same,outcome,[16],inactive
same,outcome,[4],inactive
COC(=O)NS(=O)(=O)c1ccc(N)cc1,AC50,[2],inconclusive: 137 µM
same,outcome,[12],inactive
CCCOC(=O)c1ccccc1C(=O)OCCC,AC50,[9],inconclusive: 25 µM
Cc1cccc(C)c1N,AC50,[18],active: 0.0218 µM
same,AC50,[1],inconclusive: 0.917 µM
same,AC50,[2],inconclusive: 197 µM
CCCCC(CC)COC(=O)c1ccccc1C(=O)OCC(CC)CCCC (configuration not stated),outcome,NCBI gene 100848466,inactive
same,AC50,[7],inconclusive: 0.197 µM
same,AC50,[17],inconclusive: 20 µM
same,outcome,[3],inactive
same,outcome,[16],inactive
same,outcome,[8],inactive
same,AC50,[13],inconclusive: 100 µM
same,AC50,[14],inconclusive: 182 µM
same,AC50,[15],inconclusive: 100 µM
COS(=O)(=O)OC,AC50,[1],inconclusive: 11.6 µM
same,outcome,[5],inactive
same,AC50,[6],inconclusive: 20 µM
N#Cc1c[nH]cc1-c1cccc2c1OC(F)(F)O2,outcome,NCBI gene 100848466,inactive
same,AC50,[17],inconclusive: 0.52 µM
same,AC50,[12],inconclusive: 5.72 µM
same,AC50,[4],inconclusive: 10.2 µM
same,AC50,[13],inconclusive: 100 µM and inconclusive: 7.82 µM
same,AC50,[14],inconclusive: 19.8 µM and inconclusive: 52.7 µM
same,AC50,[15],inconclusive: 24.1 µM
same,AC50,[5],inconclusive: 20 µM
CCOP(=S)(OCC)SCn1nnc2ccccc2c1=O,AC50,[9],inconclusive: 0.956 µM
Cc1ccccc1OP(=O)(Oc1ccccc1C)Oc1ccccc1C,AC50,[5],inconclusive: 15 µM
CCOC(=O)Nc1cccc(OC(=O)Nc2ccccc2)c1,AC50,[9],active: 8.56 µM
Nc1ccc(-c2ccc(N)cc2)cc1,AC50,[5],inconclusive: 20 µM
COC(=O)Cc1ccccc1,outcome,[9],inactive
same,outcome,[6],inactive
Clc1ccc(C(Cl)(Cl)Cl)cc1,AC50,[1],inconclusive: 40.8 µM
same,outcome,[10],inactive
O=[N+]([O-])c1ccc2c3c(cccc13)CC2,AC50,[9],active: 18.9 µM
Cc1ccc(N=CN(C)C=Nc2ccc(C)cc2C)c(C)c1,outcome,[17],inactive
same,AC50,[16],inconclusive: 33.9 µM
same,AC50,[6],inconclusive: 6.01 µM

# Retrieved one by one from the list above, five records:
smiles,measurement,setting,value
N#Cc1c[nH]cc1-c1cccc2c1OC(F)(F)O2,AC50,[12],inconclusive: 5.72 µM
Cc1cccc(C)c1N,AC50,[2],inconclusive: 197 µM
COC(=O)NS(=O)(=O)c1ccc(N)cc1,AC50,[2],inconclusive: 137 µM
Clc1ccc(C(Cl)(Cl)Cl)cc1,outcome,[10],inactive
CCC(C)Nc1c([N+](=O)[O-])cc(C(C)(C)C)cc1[N+](=O)[O-] (configuration not stated),outcome,[5],inactive
